The target of assay [1] is Myc (c-myc), endogenous in glioblastoma stem cells (human (endogenous in GSCs)) (UniProt P01106). As to the kind of experiment: co-IP; GSC lysates, endogenous proteins; reciprocal immunoprecipitation with anti-Myc, anti-PRMT1 and anti-PRMT5 antibodies and control IgGs, western blot; also after 7 days in 2% FBS medium (Myc/PRMT1 kept).
Assay [2] concerns the target Protein Arginine Methyltransferase 1 (PRMT1), endogenous in HEK293T cells (human (endogenous in HEK293T)) (UniProt Q99873). Nature of the assay: co-IP; FlagMyc/HEK293T lysates (140 mM NaCl, 10 mM Tris pH 7.6, 1% Triton X-100, 0.1% sodium deoxycholate, 1 mM EDTA); reciprocal immunoprecipitation with anti-Flag, anti-PRMT1 and anti-PRMT5 antibodies and control IgGs, western blot; also in cells given scrambled siRNA or siPRMT1 (PRMT5/FlagMyc kept). On the technique in general: A western blot detects proteins with antibodies after separation by electrophoresis.

Sequences of proteins named here, by UniProt entry; tags and fusion partners are left off.
UniProt P01106: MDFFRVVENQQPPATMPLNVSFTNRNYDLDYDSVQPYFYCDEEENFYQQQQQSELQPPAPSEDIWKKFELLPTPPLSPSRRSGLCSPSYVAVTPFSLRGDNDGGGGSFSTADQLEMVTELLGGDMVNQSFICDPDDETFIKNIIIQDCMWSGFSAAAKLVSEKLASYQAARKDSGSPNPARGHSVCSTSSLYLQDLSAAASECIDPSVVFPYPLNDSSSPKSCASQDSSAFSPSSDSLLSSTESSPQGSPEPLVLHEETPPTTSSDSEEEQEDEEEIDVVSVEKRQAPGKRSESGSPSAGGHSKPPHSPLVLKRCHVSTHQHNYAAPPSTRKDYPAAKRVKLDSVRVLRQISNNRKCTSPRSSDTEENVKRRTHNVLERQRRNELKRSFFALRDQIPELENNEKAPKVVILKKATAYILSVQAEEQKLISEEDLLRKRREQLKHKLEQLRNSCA
UniProt Q99873: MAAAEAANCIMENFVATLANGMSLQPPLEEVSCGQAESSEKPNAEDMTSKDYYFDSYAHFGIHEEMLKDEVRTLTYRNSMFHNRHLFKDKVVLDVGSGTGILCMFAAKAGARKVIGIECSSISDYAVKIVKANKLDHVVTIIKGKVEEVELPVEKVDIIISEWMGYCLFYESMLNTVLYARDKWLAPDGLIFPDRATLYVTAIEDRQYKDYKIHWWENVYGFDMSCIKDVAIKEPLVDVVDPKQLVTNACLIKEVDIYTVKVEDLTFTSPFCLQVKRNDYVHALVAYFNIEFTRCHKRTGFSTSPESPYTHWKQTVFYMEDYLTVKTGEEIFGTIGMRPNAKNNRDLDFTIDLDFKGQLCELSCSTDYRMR
UniProt O14744: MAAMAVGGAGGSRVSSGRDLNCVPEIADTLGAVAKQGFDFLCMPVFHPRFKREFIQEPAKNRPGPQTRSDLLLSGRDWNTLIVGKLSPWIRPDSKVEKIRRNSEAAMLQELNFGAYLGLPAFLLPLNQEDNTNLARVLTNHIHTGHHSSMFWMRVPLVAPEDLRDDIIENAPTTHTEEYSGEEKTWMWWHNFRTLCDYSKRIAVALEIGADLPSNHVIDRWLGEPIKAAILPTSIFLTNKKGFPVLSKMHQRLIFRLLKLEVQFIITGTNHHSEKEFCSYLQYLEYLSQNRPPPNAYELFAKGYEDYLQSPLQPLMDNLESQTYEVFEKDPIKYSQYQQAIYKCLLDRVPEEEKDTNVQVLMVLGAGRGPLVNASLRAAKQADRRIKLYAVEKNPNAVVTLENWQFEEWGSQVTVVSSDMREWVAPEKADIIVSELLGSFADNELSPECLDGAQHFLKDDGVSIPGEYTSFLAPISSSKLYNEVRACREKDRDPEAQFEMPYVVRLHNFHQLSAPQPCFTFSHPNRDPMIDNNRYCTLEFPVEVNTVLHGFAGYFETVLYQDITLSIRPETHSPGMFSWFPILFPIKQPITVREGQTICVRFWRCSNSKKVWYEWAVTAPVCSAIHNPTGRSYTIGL

For another assay, the target named is Flag-tagged Myc (UniProt P01106). The description is as above.
Assay [3] concerns the target Protein Arginine Methyltransferase 1 (PRMT1), endogenous in HEK293T cells (human (endogenous in HEK293T)) (UniProt Q99873). Nature of the assay: co-IP; HEK293T cells partially depleted of PRMT1 by siRNA, then transfected with FlagMyc; lysates immunoprecipitated with anti-PRMT1 antibody.
The target in assay [4] is Protein Arginine Methyltransferase 1 (PRMT1), endogenous in glioblastoma stem cells (human (endogenous in GSCs)) (UniProt Q99873). As to the kind of experiment: co-IP; GSC lysates, endogenous proteins; reciprocal immunoprecipitation with anti-Myc, anti-PRMT1 and anti-PRMT5 antibodies and control IgGs, western blot; also after 7 days in 2% FBS medium (Myc/PRMT1 kept).
Assay [5] concerns the target Myc (c-myc), endogenous in glioblastoma stem cells (human (endogenous in GSCs)) (UniProt P01106). Nature of the assay: co-IP; GSCs differentiated for 7 days in 2% FBS medium, endogenous proteins; immunoprecipitation and western blot.

These are yes or no findings as the source states them, for the method shown. In cells and extracts the contact can be indirect. Some entries that bind do so weakly or less than the wild type.

As to “Protein Arginine Methyltransferase 1 (PRMT1), endogenous in glioblastoma stem cells (from UniProt Q99873 1-371) (enzyme)”, the binding entry in assay [1] is on record as “binds”.

For “Protein Arginine Methyltransferase 5 (PRMT5), endogenous in HEK293T cells (from UniProt O14744 1-637) (enzyme)”, the binding entry in assay [2] is listed as “binds”; in the assay with Flag-tagged Myc it was “binds”; in assay [3], “binds weakly”.

In the case of “Protein Arginine Methyltransferase 5 (PRMT5), endogenous in glioblastoma stem cells (from UniProt O14744 1-637) (enzyme)”, the figures for the binding entry in assay [4], in assay [1] and in assay [5] were “binds”, “binds” and “binds weakly”, respectively.

The record behind these values is PMC6828805.
